Laboratory results as given in PubChem BioAssay AID1671190 (National Center for Advancing Translational Sciences (NCATS), 2021).
In all, about 580,000 compounds went through this assay and about 6,100 (1.1%) were called active. This list was built around the results that the source calls inconclusive (neither active nor inactive); the mix of calls is not that of the screen. Calls come from the whole dose curve; as a rule, active = well fitted inhibition curve with a large enough effect; inconclusive = small, poorly fitted or top-dose-only effect, or another doubt; inactive = no such curve, though single readings can be large or run the other way. A potency beside an inconclusive call is a rough fit, not a confirmed value.

Amino acid sequences for entries named in this document (tags omitted).
UniProt P18054, whole entry, looked up: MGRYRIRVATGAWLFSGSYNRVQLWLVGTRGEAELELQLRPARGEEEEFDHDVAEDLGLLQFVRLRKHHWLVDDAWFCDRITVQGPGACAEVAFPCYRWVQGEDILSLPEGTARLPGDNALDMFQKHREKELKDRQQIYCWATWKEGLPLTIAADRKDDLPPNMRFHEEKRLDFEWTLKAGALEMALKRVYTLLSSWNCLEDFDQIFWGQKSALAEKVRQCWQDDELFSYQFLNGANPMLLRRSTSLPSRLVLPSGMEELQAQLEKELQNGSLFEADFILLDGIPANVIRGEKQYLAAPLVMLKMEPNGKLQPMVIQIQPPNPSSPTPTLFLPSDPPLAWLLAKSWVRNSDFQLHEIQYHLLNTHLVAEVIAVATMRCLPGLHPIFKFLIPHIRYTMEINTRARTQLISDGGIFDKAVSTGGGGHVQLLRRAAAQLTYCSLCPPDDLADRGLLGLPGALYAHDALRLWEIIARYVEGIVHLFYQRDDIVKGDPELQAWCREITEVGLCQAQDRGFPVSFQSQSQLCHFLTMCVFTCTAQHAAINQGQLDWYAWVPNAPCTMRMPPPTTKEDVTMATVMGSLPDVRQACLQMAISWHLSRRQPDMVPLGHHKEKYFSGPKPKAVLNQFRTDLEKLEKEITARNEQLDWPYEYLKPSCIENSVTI

Molecular target: Polyunsaturated fatty acid lipoxygenase ALOX12 (Homo sapiens) (UniProt P18054)
Assay: Primary qHTS assay for inhibitors of human arachidonate 12S-lipoxygenase (ALOX12): Round 2
Conditions: purified 12hLO, xylenol orange hydroperoxide absorbance; series mostly up to 108 µM
Summary of the method: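 Purified human 12hLO at 150 nM in 25 mM Hepes, 0.01% Triton X-100, pH 7.0, preincubated 15 min at room temperature with compound. Reaction started with 40 uM arachidonic acid, 30 min at room temperature. Hydroperoxide measured by Fe-xylenol orange, 573/405 nm absorbance ratio.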
Potency is the fitted concentration of half-maximal effect.

SMILES	Potency
O=C(C1CC1)N1CCN(c2ccc(O)cc2)CC1	inconclusive: 89.1 µM [inhibitor, partial curve, poor fit]
O=C(Cn1c(=O)oc2ccccc21)Nc1ccc(S(=O)(=O)N2CCCCC2)cc1	inconclusive: 35.5 µM [inhibitor, single point]
N#Cc1c(-c2ccco2)cc(C2CC2)nc1SCC(=O)c1ccccc1	inconclusive: 39.8 µM [inhibitor, partial curve, poor fit]
COc1ccc2c(CC(=O)Nc3ccc(OC)c(NS(=O)(=O)c4ccc(F)cc4)c3)coc2c1	inconclusive: 7.08 µM [inhibitor, full curve, poor fit]
COc1cccc(CNc2ccc3[nH]c(=O)[nH]c3c2)c1OCc1ccc(F)cc1	inconclusive: 50.1 µM [inhibitor, partial curve, poor fit]
Oc1ccc(C(=S)N2CCCCC2)cc1Cl	inactive
CC(=O)O/N=C1\C(=O)N(Cc2ccc(C)cc2)c2ccccc21	inconclusive: 50.1 µM [inhibitor, partial curve, poor fit]
Cn1cc(CNCC2CCN(c3ncc(C(=O)NO)cn3)CC2)c2ccccc21	inactive
CCOc1ccc(NC(=O)c2ccc(-c3csc(C)n3)cc2)cc1	inconclusive: 141 µM [inhibitor, partial curve, poor fit]
CCOc1ccc(-n2cc(-c3ccccc3)c3c(=S)nc[nH]c32)cc1	inconclusive: 44.7 µM [inhibitor, partial curve, poor fit]
CC(=O)Oc1ccc(-c2cccc(C(=O)N(C)c3ccc(O)cc3)c2)cc1	inconclusive: 141 µM [inhibitor, single point]
CCN(CC)CCC(=O)Nc1c(C(=O)OC)[nH]c2ccc(C)cc12	inconclusive: 79.4 µM [inhibitor, partial curve, poor fit]
CCn1cc(C(=O)Nc2ccc(C(C)C)cc2)c2cc(OC)c(OC)cc2c1=O	inconclusive: 56.2 µM [inhibitor, partial curve, poor fit]
CNCc1ccc(-c2ccc(Br)cc2)o1	active: 28.2 µM
N#Cc1ccc(Cn2c(CN3CCOCC3)nc3scc(-c4cccs4)c3c2=O)cc1	inactive
Cc1cccc(/C=C2\Sc3ccc(C(=O)N4CCC(C(N)=O)CC4)cc3N(C)C2=O)c1	inconclusive: 56.2 µM [inhibitor, partial curve, poor fit]
O=C(O)CSCC(=O)N1N=C2/C(=C/c3ccccc3)CCCC2C1c1ccccc1 (configuration not stated)	inactive
CCCc1c(-c2ccc(F)cc2F)ncn1Cc1cccc(-c2ccccc2)c1	inconclusive: 35.5 µM [inhibitor, partial curve, poor fit]
N#C/C(=C\c1ccc(OC(=O)c2ccccc2)cc1)C(=O)Nc1ccccc1	inconclusive: 50.1 µM [inhibitor, partial curve, poor fit]
CCOC(=O)C1=C(O)C(=O)N(Cc2cccnc2)C1c1ccc(C)cc1 (configuration not stated)	inconclusive: 50.1 µM [inhibitor, partial curve, poor fit]
COc1cc(/C=N/O)c(Br)cc1O	inconclusive: 44.7 µM [inhibitor, partial curve, poor fit]

Some of these compounds in order of number of heavy atoms, rising:
SMILES	Potency
CNCc1ccc(-c2ccc(Br)cc2)o1	active: 28.2 µM
O=C(C1CC1)N1CCN(c2ccc(O)cc2)CC1	inconclusive: 89.1 µM [inhibitor, partial curve, poor fit]
CCOc1ccc(NC(=O)c2ccc(-c3csc(C)n3)cc2)cc1	inconclusive: 141 µM [inhibitor, partial curve, poor fit]
CC(=O)Oc1ccc(-c2cccc(C(=O)N(C)c3ccc(O)cc3)c2)cc1	inconclusive: 141 µM [inhibitor, single point]
COc1cccc(CNc2ccc3[nH]c(=O)[nH]c3c2)c1OCc1ccc(F)cc1	inconclusive: 50.1 µM [inhibitor, partial curve, poor fit]

The list continues:

SMILES	Potency
Cc1ccc(C(O)(C(=O)NNS(=O)(=O)c2ccc(C)cc2)c2ccc(C)cc2)cc1	inconclusive: 15.8 µM [inhibitor, full curve]
COC(=O)[C@@H]1Cc2ncn(C(C)C)c2CN1S(=O)(=O)c1ccc(OC)cc1	inconclusive: 17.8 µM [inhibitor, partial curve, poor fit]
O=[N+]([O-])c1cccnc1Nc1ccc(Cl)cc1	inactive
O=C(NCCN1CCOCC1)c1ccc(NC(=O)c2ccc(Br)o2)cc1	inconclusive: 44.7 µM [inhibitor, partial curve, poor fit]
COc1cc(C(C)=O)ccc1OS(=O)(=O)c1ccc2c(c1)CCC2	inconclusive: 126 µM [inhibitor, partial curve, poor fit]
CNC(=O)NC(=O)CCN1CCOC(c2cccc(Br)c2)C1 (configuration not stated)	inconclusive: 39.8 µM [inhibitor, partial curve, poor fit]
CC(=O)NCc1ccc(-c2csc(Nc3cccc(C)c3)n2)o1	inconclusive: 39.8 µM [inhibitor, partial curve, poor fit]
CN1CCCC(C#CC(O)(c2ccccc2)c2ccccc2)C1 (configuration not stated)	inconclusive: 44.7 µM [inhibitor, partial curve, poor fit]
COc1ccc(NC(=O)CC2C(=O)N(c3ccc(Cl)cc3)C(=S)N2CCc2ccncc2)cc1 (configuration not stated)	inconclusive: 5.62 µM [inhibitor, full curve]
CCOc1ccc(Cn2c(CNS(=O)(=O)c3ccc([N+](=O)[O-])cc3)nc3cccnc32)cc1	inconclusive: 56.2 µM [inhibitor, full curve, poor fit]
COc1c(O)cc2c(=O)oc3c(OC)c(O)cc4c(=O)oc1c2c34	inconclusive: 50.1 µM [inhibitor, partial curve, poor fit]
CC(C)c1noc(-c2cn(C3CCN(C(=O)c4ccc(C#N)cc4)C3)nn2)n1 (configuration not stated)	inactive
Cc1ccc(NC(=O)CSCc2cc(=O)n3oc(C)cc3n2)c(C)c1	inconclusive: 112 µM [inhibitor, single point]
CC(=O)Nc1cc(-c2ccc(C(=O)NC3CC3)cc2)cn2c(-c3cccc(C(F)(F)F)c3)cnc12	inconclusive: 39.8 µM [inhibitor, partial curve]
CC1CCN(C(C)C(=O)Nc2ccc(S(=O)(=O)N3CCCC3)cc2)CC1 (configuration not stated)	inactive
Cc1cc(-c2nc3ccccc3s2)ccc1NC(=O)c1ccccc1C	inactive
C(=N\Nc1nc(N2CCCC2)nc(N2CCCC2)n1)/c1ccccc1OCc1ccccc1	inconclusive: 50.1 µM [inhibitor, partial curve, poor fit]
Cc1ccc(CNCC(O)(c2ccccc2)c2ccccc2)cc1	inactive
O=C(O)C[C@@H]1CCN(S(=O)(=O)c2ccc(Cl)cc2)C[C@@H]1CC1=NCCc2cc(F)ccc21	inconclusive: 15.8 µM [inhibitor, full curve, poor fit]
CCCCOc1ccc(CN2CCC(O)CC2)cc1	inconclusive: 0.562 µM [inhibitor, full curve, poor fit]
Cc1ccc(S(=O)(=O)NNC(=O)C(=O)NNS(=O)(=O)c2ccc(C)cc2)cc1	inactive

SMILES	Potency
CCOC(=O)c1cc(C)nc(Sc2ccc(C)cc2)c1C#N	inconclusive: 100 µM [inhibitor, single point]
Cc1cccc(-n2nc(C)c(CCC(=O)N3CCOCC3)c2Oc2ccccc2C)c1	inconclusive: 11.2 µM [inhibitor, partial curve, poor fit]
COCCn1ccc2c(OCC(=O)NCc3ccc(F)cc3)cccc2c1=O	inconclusive: 141 µM [inhibitor, partial curve, poor fit]
COCc1cc(C[C@@H]2CC[C@H](O)[C@@H](CNC(=O)NC3CCCCC3)O2)no1	inconclusive: 35.5 µM [inhibitor, full curve, poor fit]
CC(=O)CSc1ncnc2scc(-c3ccc(F)cc3)c12	inactive
Cc1cc(C)c2nc(/N=C(\N)NC(=O)Nc3ccccc3)nc(C)c2c1	inconclusive: 20 µM [inhibitor, partial curve, poor fit]
Cc1nnc(NC(=O)COc2ccc3c(C)cc(=O)oc3c2)s1	inactive
COc1ccc2[nH]c(=O)c(NC(N)=S)nc2c1	inconclusive: 8.91 µM [inhibitor, partial curve, poor fit]
CN(C)c1ccc(NC(=O)c2ccc3c(c2)N(C)C2CCCCN2C3=O)cc1 (configuration not stated)	inconclusive: 44.7 µM [inhibitor, partial curve]
CCc1ccc(C(=O)Oc2ccc(Br)cc2)cc1	inconclusive: 39.8 µM [inhibitor, single point]
COCCNC(=O)CSc1nc2ccccc2c(=O)n1-c1cccc(OC)c1	inconclusive: 6.31 µM [inhibitor, full curve, poor fit]
Cc1cc2nc(C(C)(C)C)c(Cc3ccccc3)n2c(C)c1Br	inconclusive: 89.1 µM [inhibitor, partial curve, poor fit]
C[N+](C)(C)CC#CCCCCC#CC[N+](C)(C)C	inconclusive: 10 µM [inhibitor, full curve, poor fit]
O=C1CSc2ccc(C(=O)OCC(=O)NC3CCCc4ccccc43)cc2N1 (configuration not stated)	inconclusive: 39.8 µM [inhibitor, partial curve, poor fit]
CCOC(=O)c1c(CN2CCCCC2)n(C)c2cc(Br)c(O)cc12	inconclusive: 112 µM [inhibitor, single point]
Cc1cc(C)nc(NS(=O)(=O)c2ccc(NC(=S)NC(=O)C(C)(C)C)cc2)n1	inconclusive: 56.2 µM [inhibitor, partial curve, poor fit]
CCc1ccc(Nc2ncc3c(n2)CC(C)(C)CC3=O)cc1	inconclusive: 112 µM [inhibitor, single point]
CCOC(=O)c1oc2ccc(CNC3CCCCC3)c(Cl)c2c1C	inconclusive: 2.24 µM [inhibitor, full curve, poor fit]
CC(/C=C/N(C)C)=C\C=[N+](C)C	inconclusive: 17.8 µM [inhibitor, partial curve, poor fit]
C[C@@H]1CCC(=O)N(CC[C@H](Sc2ccc(Br)cc2)c2ccccc2)CC1	inconclusive: 89.1 µM [inhibitor, partial curve, poor fit]
